Some of the results follow.
Assays:
Experiment in all cases: log2 fold change, soluble protein after heating vs DMSO (PISA); higher = thermal stabilisation; K562 lysate, 10 uM; active = over 0.2 and 3.5 SD of the protein, either way, in both replicates (recomputed)
[1] = compound: CC1=C(C=C(C=C1)NC(=O)C2=CC(=CC=C2)C(C)(C)C#N)NC3=CC4=C(C=C3)N=CN(C4=O)C
Summary of the method: (§1)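 Soluble protein was defined as the supernatant remaining after 21,000xg for 90 min, following pooling of heated aliquots and adjustment to 0.5% NP-40 at 4°C. Before that, crude K562 extract at 1 mg/mL protein in PBS pH 7.4 with 1 mM MgCl2 was treated with 10 μM compound for 30 min and heated for 3 min across 48°C-58°C. Quantification used TMTpro 16plex LC-MS/MS with channel sums equalised, and values are log-two fold changes in thermal stability relative to solvent controls from duplicates.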

The chains behind the UniProt entries cited, without tags or fusion partners. Where a name states a change or a piece, a line headed by the entry shows the natural chain unless it says otherwise.
UniProt O15519, whole entry, looked up: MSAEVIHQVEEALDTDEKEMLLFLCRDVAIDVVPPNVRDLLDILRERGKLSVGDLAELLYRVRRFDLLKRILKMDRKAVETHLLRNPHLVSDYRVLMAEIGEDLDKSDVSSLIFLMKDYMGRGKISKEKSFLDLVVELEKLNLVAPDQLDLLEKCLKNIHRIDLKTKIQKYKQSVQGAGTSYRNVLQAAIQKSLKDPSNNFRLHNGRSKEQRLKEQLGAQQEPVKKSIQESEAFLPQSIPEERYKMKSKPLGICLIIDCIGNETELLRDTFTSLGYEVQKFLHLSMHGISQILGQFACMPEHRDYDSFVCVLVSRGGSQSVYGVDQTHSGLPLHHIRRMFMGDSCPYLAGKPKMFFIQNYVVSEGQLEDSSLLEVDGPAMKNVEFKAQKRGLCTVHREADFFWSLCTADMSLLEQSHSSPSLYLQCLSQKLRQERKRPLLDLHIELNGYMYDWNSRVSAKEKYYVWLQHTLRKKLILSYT
UniProt Q99741: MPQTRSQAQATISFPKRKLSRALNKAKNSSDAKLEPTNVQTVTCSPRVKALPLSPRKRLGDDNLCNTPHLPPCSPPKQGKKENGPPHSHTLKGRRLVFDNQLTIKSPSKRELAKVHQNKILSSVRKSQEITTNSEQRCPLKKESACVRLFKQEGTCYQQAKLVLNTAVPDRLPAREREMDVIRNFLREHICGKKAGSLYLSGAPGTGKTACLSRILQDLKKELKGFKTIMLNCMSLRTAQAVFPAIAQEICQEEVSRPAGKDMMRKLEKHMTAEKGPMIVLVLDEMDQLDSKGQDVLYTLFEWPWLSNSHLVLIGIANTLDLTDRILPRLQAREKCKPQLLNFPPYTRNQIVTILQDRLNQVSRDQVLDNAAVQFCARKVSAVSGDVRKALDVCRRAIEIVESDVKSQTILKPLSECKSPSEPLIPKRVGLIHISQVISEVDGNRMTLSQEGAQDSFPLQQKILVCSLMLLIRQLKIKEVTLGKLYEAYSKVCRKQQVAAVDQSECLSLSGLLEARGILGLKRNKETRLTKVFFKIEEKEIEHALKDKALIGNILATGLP
UniProt Q86XR8: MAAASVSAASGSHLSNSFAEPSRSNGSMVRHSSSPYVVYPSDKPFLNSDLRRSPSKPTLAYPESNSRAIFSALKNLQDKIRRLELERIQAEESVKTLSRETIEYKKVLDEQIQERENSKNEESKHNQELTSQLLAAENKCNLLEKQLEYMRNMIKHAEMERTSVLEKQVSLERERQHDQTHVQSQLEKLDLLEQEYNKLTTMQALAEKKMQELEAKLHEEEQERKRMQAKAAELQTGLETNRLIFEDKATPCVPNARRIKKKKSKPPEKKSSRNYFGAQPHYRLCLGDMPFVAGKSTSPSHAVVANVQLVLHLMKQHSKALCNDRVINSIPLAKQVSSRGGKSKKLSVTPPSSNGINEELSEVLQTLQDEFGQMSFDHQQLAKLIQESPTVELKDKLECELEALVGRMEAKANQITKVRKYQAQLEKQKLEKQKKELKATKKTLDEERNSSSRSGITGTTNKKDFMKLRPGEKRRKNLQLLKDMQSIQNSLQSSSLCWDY
UniProt Q8TCZ2: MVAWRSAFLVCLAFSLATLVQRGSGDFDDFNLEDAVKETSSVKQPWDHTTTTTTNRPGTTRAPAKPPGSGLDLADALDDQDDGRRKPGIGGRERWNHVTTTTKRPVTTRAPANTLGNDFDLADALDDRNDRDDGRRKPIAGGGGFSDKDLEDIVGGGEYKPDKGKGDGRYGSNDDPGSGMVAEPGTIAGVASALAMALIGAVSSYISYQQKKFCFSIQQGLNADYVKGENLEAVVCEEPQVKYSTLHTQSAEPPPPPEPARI
UniProt Q9BXL8: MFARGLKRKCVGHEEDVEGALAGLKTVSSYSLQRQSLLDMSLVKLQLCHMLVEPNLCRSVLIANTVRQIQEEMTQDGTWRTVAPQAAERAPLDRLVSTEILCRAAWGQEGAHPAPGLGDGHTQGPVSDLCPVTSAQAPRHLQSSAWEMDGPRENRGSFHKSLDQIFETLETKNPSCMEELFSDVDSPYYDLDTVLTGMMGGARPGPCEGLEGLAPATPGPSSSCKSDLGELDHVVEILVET
UniProt Q5TB80: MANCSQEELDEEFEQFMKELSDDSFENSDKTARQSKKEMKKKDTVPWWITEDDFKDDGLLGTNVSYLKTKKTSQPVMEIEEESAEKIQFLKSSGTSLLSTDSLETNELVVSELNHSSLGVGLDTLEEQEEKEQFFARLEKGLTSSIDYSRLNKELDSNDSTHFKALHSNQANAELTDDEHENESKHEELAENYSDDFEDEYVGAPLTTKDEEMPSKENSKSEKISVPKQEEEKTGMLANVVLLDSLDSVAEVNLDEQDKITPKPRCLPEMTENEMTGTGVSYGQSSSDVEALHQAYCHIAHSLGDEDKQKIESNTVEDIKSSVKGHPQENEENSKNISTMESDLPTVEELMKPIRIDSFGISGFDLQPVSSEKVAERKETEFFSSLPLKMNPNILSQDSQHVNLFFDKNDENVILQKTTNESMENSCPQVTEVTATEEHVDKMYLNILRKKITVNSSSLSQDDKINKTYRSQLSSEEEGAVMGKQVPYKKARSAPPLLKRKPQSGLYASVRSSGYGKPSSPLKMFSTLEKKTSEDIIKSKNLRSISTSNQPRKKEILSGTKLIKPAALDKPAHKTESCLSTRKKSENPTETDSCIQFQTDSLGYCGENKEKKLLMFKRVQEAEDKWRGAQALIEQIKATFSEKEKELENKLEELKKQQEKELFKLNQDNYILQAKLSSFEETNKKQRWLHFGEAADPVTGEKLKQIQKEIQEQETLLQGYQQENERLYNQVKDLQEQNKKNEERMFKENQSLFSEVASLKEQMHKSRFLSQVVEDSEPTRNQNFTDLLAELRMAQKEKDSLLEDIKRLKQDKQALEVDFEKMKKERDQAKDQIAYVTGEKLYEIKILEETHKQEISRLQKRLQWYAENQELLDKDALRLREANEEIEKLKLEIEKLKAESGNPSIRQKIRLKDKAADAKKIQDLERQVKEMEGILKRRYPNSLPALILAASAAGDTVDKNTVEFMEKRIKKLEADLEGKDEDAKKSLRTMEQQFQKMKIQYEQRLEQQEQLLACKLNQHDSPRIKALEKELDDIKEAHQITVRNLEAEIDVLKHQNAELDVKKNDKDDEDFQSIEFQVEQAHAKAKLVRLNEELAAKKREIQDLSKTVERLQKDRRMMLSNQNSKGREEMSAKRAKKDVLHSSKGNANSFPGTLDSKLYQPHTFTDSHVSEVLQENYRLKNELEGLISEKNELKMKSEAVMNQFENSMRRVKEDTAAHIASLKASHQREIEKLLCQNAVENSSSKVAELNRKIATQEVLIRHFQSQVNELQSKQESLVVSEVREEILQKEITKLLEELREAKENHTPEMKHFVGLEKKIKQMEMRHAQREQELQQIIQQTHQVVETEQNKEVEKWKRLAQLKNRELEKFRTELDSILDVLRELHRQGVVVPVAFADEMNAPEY
UniProt Q9UNH5: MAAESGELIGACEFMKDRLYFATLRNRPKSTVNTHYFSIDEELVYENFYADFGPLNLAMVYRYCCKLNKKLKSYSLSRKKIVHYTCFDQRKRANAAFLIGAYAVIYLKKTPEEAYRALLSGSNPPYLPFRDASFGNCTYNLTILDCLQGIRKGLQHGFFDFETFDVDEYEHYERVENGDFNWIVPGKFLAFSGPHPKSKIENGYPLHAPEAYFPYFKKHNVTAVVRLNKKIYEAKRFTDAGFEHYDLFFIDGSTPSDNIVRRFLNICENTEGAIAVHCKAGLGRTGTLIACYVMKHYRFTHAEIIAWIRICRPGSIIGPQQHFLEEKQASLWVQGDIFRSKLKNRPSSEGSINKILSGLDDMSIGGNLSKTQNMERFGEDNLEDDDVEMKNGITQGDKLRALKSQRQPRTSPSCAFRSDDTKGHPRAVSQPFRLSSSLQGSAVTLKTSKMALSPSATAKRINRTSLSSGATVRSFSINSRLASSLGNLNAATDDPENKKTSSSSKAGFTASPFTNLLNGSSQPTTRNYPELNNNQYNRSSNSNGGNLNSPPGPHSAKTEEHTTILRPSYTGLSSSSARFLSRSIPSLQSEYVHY
UniProt Q6DT37: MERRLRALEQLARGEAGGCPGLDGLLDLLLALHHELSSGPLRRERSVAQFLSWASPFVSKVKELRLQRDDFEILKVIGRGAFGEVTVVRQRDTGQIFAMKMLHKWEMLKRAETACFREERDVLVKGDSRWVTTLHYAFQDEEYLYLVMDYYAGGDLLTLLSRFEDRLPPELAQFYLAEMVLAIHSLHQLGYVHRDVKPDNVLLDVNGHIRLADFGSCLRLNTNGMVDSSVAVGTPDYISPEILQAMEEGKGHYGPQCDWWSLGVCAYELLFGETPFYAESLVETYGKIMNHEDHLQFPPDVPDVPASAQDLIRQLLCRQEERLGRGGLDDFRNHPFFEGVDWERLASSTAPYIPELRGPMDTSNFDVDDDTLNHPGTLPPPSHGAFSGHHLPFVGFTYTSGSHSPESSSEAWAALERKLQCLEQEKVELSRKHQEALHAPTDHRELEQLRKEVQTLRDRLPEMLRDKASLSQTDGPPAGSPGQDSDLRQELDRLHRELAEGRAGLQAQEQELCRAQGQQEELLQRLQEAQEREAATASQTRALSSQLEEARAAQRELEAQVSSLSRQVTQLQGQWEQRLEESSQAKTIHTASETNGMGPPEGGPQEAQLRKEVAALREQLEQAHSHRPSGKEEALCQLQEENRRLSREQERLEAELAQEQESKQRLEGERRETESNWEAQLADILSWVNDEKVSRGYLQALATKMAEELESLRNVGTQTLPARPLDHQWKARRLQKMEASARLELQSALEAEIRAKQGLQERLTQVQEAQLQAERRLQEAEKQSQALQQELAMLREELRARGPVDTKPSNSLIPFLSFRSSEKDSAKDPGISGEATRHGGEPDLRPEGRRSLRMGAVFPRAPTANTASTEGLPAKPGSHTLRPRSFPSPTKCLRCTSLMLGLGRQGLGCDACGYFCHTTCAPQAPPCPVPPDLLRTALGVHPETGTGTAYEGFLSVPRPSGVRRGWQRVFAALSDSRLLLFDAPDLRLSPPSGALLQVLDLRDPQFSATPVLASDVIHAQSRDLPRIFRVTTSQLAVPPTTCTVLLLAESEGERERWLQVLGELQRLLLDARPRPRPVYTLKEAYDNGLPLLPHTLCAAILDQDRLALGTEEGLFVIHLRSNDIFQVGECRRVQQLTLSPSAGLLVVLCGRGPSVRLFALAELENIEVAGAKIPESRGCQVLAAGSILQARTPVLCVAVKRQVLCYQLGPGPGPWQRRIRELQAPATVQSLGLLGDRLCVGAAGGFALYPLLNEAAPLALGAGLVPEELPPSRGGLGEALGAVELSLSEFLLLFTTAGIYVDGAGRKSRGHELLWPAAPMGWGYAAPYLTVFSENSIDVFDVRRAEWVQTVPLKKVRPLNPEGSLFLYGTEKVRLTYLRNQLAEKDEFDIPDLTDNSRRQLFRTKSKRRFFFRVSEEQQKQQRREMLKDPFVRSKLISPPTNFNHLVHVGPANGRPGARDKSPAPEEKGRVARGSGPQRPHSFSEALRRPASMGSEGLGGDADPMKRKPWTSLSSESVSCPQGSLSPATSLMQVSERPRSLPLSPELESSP
UniProt O76039: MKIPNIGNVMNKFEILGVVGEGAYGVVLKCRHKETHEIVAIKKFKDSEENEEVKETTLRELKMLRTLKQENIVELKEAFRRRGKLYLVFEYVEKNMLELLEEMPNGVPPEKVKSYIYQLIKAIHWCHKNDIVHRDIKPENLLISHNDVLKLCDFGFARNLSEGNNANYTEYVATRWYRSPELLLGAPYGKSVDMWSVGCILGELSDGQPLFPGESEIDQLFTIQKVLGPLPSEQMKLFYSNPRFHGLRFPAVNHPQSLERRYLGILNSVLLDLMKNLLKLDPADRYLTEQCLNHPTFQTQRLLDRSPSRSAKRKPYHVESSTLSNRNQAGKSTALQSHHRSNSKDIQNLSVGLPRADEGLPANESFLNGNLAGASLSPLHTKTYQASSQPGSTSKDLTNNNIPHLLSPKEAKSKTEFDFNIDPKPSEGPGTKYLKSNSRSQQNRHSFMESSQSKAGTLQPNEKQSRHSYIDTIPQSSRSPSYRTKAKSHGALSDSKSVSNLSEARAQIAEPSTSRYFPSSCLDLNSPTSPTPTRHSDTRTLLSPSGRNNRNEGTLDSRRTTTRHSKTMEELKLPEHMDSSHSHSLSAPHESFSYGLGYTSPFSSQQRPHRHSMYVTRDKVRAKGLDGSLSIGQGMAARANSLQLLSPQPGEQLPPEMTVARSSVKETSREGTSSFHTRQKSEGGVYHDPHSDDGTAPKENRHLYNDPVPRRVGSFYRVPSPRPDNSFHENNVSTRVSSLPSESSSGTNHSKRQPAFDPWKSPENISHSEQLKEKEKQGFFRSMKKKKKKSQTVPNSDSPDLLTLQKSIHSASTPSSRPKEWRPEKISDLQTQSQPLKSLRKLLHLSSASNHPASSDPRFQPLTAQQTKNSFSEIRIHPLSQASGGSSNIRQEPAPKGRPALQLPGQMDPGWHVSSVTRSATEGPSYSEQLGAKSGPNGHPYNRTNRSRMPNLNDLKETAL

sotrastaurin = compound: CN1CCN(c2nc(C3=C(c4c[nH]c5ccccc45)C(=O)NC3=O)c3ccccc3n2)CC1 [sotrastaurin]
Summary of the method: as §1

[2] = compound: CC[C@@H]1C(=O)N(C)c2cnc(Nc3ccc(C(=O)NC4CCN(C)CC4)cc3OC)nc2N1C1CCCC1
Summary of the method: as §1

ralimetinib = compound: CC(C)(C)Cn1c(N)nc2ccc(-c3[nH]c(C(C)(C)C)nc3-c3ccc(F)cc3)nc21 [ralimetinib]
Summary of the method: as §1

[3] = compound: CC(C)(O)CC(=O)NCCn1ccc2ncnc(Nc3ccc(Oc4cccc(C(F)(F)F)c4)c(Cl)c3)c21
Summary of the method: as §1

[4] = compound: CC1=C(C2=C(C=C1)C(=O)C3=CC=CC=C3N2CCCN)C
Summary of the method: as §1

[5] = compound: CC1=C(C=C(C=C1)NC(=O)C2=CC(=CC=C2)N(C)C)NC(=O)C3=CC=C(C=C3)O
Summary of the method: as §1

vemurafenib = compound: CCCS(=O)(=O)Nc1ccc(F)c(C(=O)c2c[nH]c3ncc(-c4ccc(Cl)cc4)cc23)c1F [vemurafenib]
Summary of the method: as §1

[6] = compound: CCn1c(C(=O)N(C2CC2)C2CC2)cc2c3c(ncn3C)c(Nc3cc(C)n(C)n3)nc21
Summary of the method: as §1

[7] = compound: CCn1cc(-c2ccnc3[nH]c(-c4cccc(CN(C)C)c4)cc23)c(-c2ccc(NC(=O)N(C)C)cc2)n1
Summary of the method: as §1

[8] = compound: CN1CCC(CNc2ccc3ncc(-c4cccc(OC(F)(F)F)c4)n3n2)CC1
Summary of the method: as §1

saracatinib = compound: CN1CCN(CCOc2cc(OC3CCOCC3)c3c(Nc4c(Cl)ccc5c4OCO5)ncnc3c2)CC1 [saracatinib]
Summary of the method: as §1

[9] = compound: CC(=O)c1cnc2ccc(-c3cc(Cl)c(O)c(Cl)c3)nc2c1N[C@H]1CC[C@H](CN(C)C)CC1
Summary of the method: as §1

[10] = compound: CC(C)C1=C2N=C(C=C(N2N=C1)NCC3=CC=CC=C3)NCCCCCCN
Summary of the method: as §1

[11] = compound: CC1=C(C(CC(=O)N1)C2=CC=C(C=C2)C(F)(F)F)C(=O)NC3=C(C=C4C(=C3)C=NN4)F
Summary of the method: as §1

[12] = compound: CC1=CC=C(C=C1)SC2=C3C=C(SC3=CN=C2)C(=O)N
Summary of the method: as §1

[13] = compound: CCCS(=O)(=O)Nc1ccc(F)c(C(=O)c2c[nH]c3ncc(Cl)cc23)c1F
Summary of the method: as §1

volasertib = compound: CC[C@@H]1C(=O)N(C)c2cnc(Nc3ccc(C(=O)N[C@H]4CC[C@H](N5CCN(CC6CC6)CC5)CC4)cc3OC)nc2N1C(C)C [volasertib]
Summary of the method: as §1

Measured: log2 fold change

CDADC1 (UniProt Q9BWV3)
inactive: [1] 0.032 | sotrastaurin 0.082

CENPB (UniProt P07199)
inactive: [2] -0.043

CFLAR (UniProt O15519)
inactive: ralimetinib -0.025 | [3] 0.112 | [4] -0.143 | [1] 0.026 | [5] -0.058 | vemurafenib -0.089 | [2] 0.022 | [6] 0.02 | [7] 0.037 | [8] 0.07 | saracatinib 0.082 | sotrastaurin -0.01

CEP170 isoform 2 (UniProt Q5SW79)
inactive: [4] -0.206 | [2] -0.06 | [7] 0.126 | [8] -0.213 | saracatinib 0.11

CD82 (UniProt P27701)
inactive: [9] -0.072 | ralimetinib -0.047 | [3] -0.011 | [10] -0.006 | [11] -0.045 | [5] 0.053 | [12] 0.044 | vemurafenib 0.098 | [13] -0.083 | volasertib 0.106 | [6] -0.104 | [7] -0.133 | [8] 0.059

CDC6 (UniProt Q99741)
inactive: ralimetinib -0.061 | [3] 0.044 | [10] 0.14 | [11] 0.03 | [4] 0 | [1] -0.02 | [5] -0.315 | [6] 0.016 | saracatinib -0.133 | sotrastaurin -0.128

CEP57 (UniProt Q86XR8)
inactive: [10] -0.054 | [2] 0.129 | [7] 0.009 | [8] 0.044

CD9 (UniProt P21926)
inactive: [4] -0.067 | vemurafenib -0.069 | [2] 0.186 | [7] -0.129 | [8] 0.014 | saracatinib -0.002

CD99L2 isoform 5 (UniProt Q8TCZ2)
inactive: [9] 0.228 | [10] -0.034 | [11] -0.048 | [4] 0.056 | [1] -0.011 | [12] 0.07 | vemurafenib 0.097 | [13] 0.189 | volasertib 0.109 | [7] 0.057 | [8] -0.039 | saracatinib 0.034 | sotrastaurin -0.008

CDCA4 (UniProt Q9BXL8)
inactive: ralimetinib -0.044 | [3] -0.197 | [4] -0.02 | [5] -0.118 | vemurafenib -0.144 | [6] -0.184 | saracatinib -0.171

CEP162 (UniProt Q5TB80)
inactive: [1] 0.042 | sotrastaurin -0.002

CEP63 (UniProt Q96MT8)
inactive: [9] -0.047 | [10] 0.18 | [11] -0.084 | [4] 0.053 | [12] 0.011 | [13] 0.003 | [2] -0.051 | volasertib 0.031 | [7] -0.416 | [8] 0.091 | saracatinib 0.025

CENPC (UniProt Q03188)
inactive: ralimetinib 0.013 | [3] 0.165 | [10] 0.058 | [4] 0.076 | [5] -0.073 | [2] 0.011 | [6] 0.096 | [7] 0.177 | [8] 0.033 | saracatinib 0.087

CDNF (UniProt Q49AH0)
inactive: [9] -0.187 | [1] 0 | [12] 0.114 | [13] 0.179 | [2] 0.062 | volasertib 0.022 | sotrastaurin -0.106

CEP72 (UniProt Q9P209)
inactive: ralimetinib -0.055 | [3] -0.122 | [10] 0.044 | [4] -0.097 | [5] -0.155 | [6] 0.049 | saracatinib -0.097

CELSR2 (UniProt Q9HCU4)
inactive: [10] -0.211

CDC14A isoform 2 (UniProt Q9UNH5)
inactive: [9] 0.107 | ralimetinib -0.336 | [3] -0.135 | [11] -0.04 | [1] 0.145 | [5] 0.219 | [12] 0.006 | [13] -0.271 | volasertib 0.085 | [6] 0.101 | sotrastaurin 0.058

CFL1 (UniProt E9PQB7)
inactive: [1] 0.337 | sotrastaurin -0.013

CEP170B (UniProt Q9Y4F5)
inactive: [9] 0.122 | [4] -0.003 | [1] 0.056 | [12] 0.23 | vemurafenib 0.029 | [13] -0.07 | [2] 0.036 | volasertib -0.052 | [7] 0.028 | [8] -0.105 | saracatinib 0.024 | sotrastaurin 0.026

CDC42BPG (UniProt Q6DT37)
inactive: [9] -0.153 | ralimetinib -0.035 | [3] -0.259 | [11] 0.058 | [4] -0.015 | [1] -0.088 | [5] -0.149 | [12] -0.119 | [13] 0.044 | volasertib 0.145 | [6] 0.057 | saracatinib 0.011 | sotrastaurin 0.323

CDKL5 (UniProt O76039)
inactive: [9] 0.088 | [4] -0.351 | [1] 0.111 | [12] -0.019 | vemurafenib -0.131 | [13] 0.041 | [2] -0.149 | volasertib -0.035 | [7] -0.091 | [8] 0.088 | saracatinib -0.122 | sotrastaurin 0.048

2 records picked at random from those above:
CEP170B (UniProt Q9Y4F5)
inactive: [9] 0.122 | [4] -0.003 | [1] 0.056 | [12] 0.23 | vemurafenib 0.029 | [13] -0.07 | [2] 0.036 | volasertib -0.052 | [7] 0.028 | [8] -0.105 | saracatinib 0.024 | sotrastaurin 0.026

CDC14A isoform 2 (UniProt Q9UNH5)
inactive: [9] 0.107 | ralimetinib -0.336 | [3] -0.135 | [11] -0.04 | [1] 0.145 | [5] 0.219 | [12] 0.006 | [13] -0.271 | volasertib 0.085 | [6] 0.101 | sotrastaurin 0.058

More entries

CEP85L isoform 4 (UniProt Q5SZL2)
inactive: [10] -0.154 | [1] 0.116 | vemurafenib -0.088 | sotrastaurin -0.063

CFAP97 (UniProt Q9P2B7)
inactive: ralimetinib 0.021 | [3] 0.05 | [10] 0.008 | [4] 0.089 | [1] 0.139 | [5] -0.05 | vemurafenib 0.14 | [6] 0.005 | [7] 0.043 | [8] -0.125 | saracatinib 0.002 | sotrastaurin 0.015

CENPT (UniProt Q96BT3)
inactive: [10] 0.006

CDAN1 (UniProt H3BPZ6)
inactive: [1] -0.172 | sotrastaurin 0.175
